# According to the supplement of paper PMC8728848:
# Some of the results follow.
# Key:
# Assay in all cases: glycan array binding signal (z-score within array); higher = stronger binding
# Conditions in all cases: glycan notation: IUPAC condensed, linker removed
# [1] = molecular target: Fuc(a1-2)[GalNAc(a1-3)]Gal(b1-4)Glc
# Procedure, shortened: (§1)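 The binding signal is a Z-score computed within each array. Data were drawn from 3228 arrays in the Consortium for Functional Glycomics database, restricted to those with a known protein sequence. Scores were averaged over arrays of the same protein sequence at different concentrations or buffers, and over linkers, and negative values can be taken as non-binding.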
# [2] = molecular target: Fuc(a1-2)[GalNAc(a1-3)]Gal(b1-4)GlcNAc
# Procedure, shortened: as §1
# [3] = molecular target: Fuc(a1-2)[GalNAc(a1-3)]Gal(b1-4)GlcNAc(b1-2)Man(a1-3)[Fuc(a1-2)[GalNAc(a1-3)]Gal(b1-4)GlcNAc(b1-2)Man(a1-6)]Man(b1-4)GlcNAc(b1-4)GlcNAc
# Procedure, shortened: as §1
# [4] = molecular target: Fuc(a1-2)[GalNAc(a1-3)]Gal(b1-4)GlcNAc(b1-2)Man(a1-3)[Fuc(a1-2)[GalNAc(a1-3)]Gal(b1-4)GlcNAc(b1-2)Man(a1-6)]Man(b1-4)GlcNAc(b1-4)[Fuc(a1-6)]GlcNAc
# Procedure, shortened: as §1
# [5] = molecular target: Fuc(a1-2)[GalNAc(a1-3)]Gal(b1-4)GlcNAc(b1-3)Gal(b1-4)GlcNAc
# Procedure, shortened: as §1
# [6] = molecular target: Fuc(a1-2)[GalNAc(a1-3)]Gal(b1-4)GlcNAc(b1-3)Gal(b1-4)GlcNAc(b1-3)Gal(b1-4)GlcNAc
# Procedure, shortened: as §1
# [7] = molecular target: Fuc(a1-2)[GalNAc(a1-3)]Gal(b1-4)GlcNAc(b1-3)GalNAc
# Procedure, shortened: as §1
# [8] = molecular target: Fuc(a1-2)[GalNAc(a1-3)]Gal(b1-4)[Fuc(a1-3)]GlcNAc
# Procedure, shortened: as §1
# [9] = molecular target: Fuc(a1-2)[GalNAc(a1-3)]Gal(b1-4)[Fuc(a1-3)]GlcNAc(b1-3)GalNAc
# Procedure, shortened: as §1
# [10] = molecular target: Fuc(a1-2)[GalNAc(a1-4)]Gal(b1-4)GlcNAc
# Procedure, shortened: as §1
# [11] = molecular target: Fuc(a1-2)[GalNAc(b1-3)]Gal
# Procedure, shortened: as §1
# [12] = molecular target: Fuc(a1-3)GlcNAc
# Procedure, shortened: as §1
# [13] = molecular target: Fuc(a1-3)[Gal(b1-4)]Glc6S
# Procedure, shortened: as §1
# [14] = molecular target: Fuc(a1-3)[Gal(b1-4)]GlcNAc
# Procedure, shortened: as §1
# [15] = molecular target: Fuc(a1-3)[Gal(b1-4)]GlcNAc(b1-2)Man(a1-3)[Fuc(a1-3)[Gal(b1-4)]GlcNAc(b1-2)Man(a1-6)]Man(b1-4)GlcNAc(b1-4)GlcNAc
# Procedure, shortened: as §1
# [16] = molecular target: Fuc(a1-3)[Gal(b1-4)]GlcNAc(b1-2)Man(a1-3)[Fuc(a1-3)[Gal(b1-4)]GlcNAc(b1-2)Man(a1-6)]Man(b1-4)GlcNAc(b1-4)[Fuc(a1-6)]GlcNAc
# Procedure, shortened: as §1
# [17] = molecular target: Fuc(a1-3)[Gal(b1-4)]GlcNAc(b1-3)Gal(b1-3)[Fuc(a1-4)]GlcNAc
# Procedure, shortened: as §1
# [18] = molecular target: Fuc(a1-3)[Gal(b1-4)]GlcNAc(b1-3)GalNAc
# Procedure, shortened: as §1
# [19] = molecular target: Fuc(a1-3)[Gal(b1-4)]GlcNAc(b1-4)Gal(b1-4)[Fuc(a1-3)]GlcNAc
# Procedure, shortened: as §1
# [20] = molecular target: Fuc(a1-3)[Gal(b1-4)]GlcNAc(b1-4)Gal(b1-4)[Fuc(a1-3)]GlcNAc(b1-4)Gal(b1-4)[Fuc(a1-3)]GlcNAc
# Procedure, shortened: as §1
# [21] = molecular target: Fuc(a1-3)[Gal(b1-4)]GlcNAc(b1-6)GalNAc
# Procedure, shortened: as §1
# [22] = molecular target: Fuc(a1-3)[Gal(b1-4)]GlcNAc(b1-6)[Gal(b1-3)GlcNAc(b1-3)]Gal(b1-4)Glc
# Procedure, shortened: as §1
# [23] = molecular target: Fuc(a1-3)[Gal(b1-4)]GlcNAc(b1-6)[Neu5Ac(a2-3)Gal(b1-3)]GalNAc
# Procedure, shortened: as §1
# [24] = molecular target: Fuc(a1-3)[Gal(b1-4)]GlcNAc6S
# Procedure, shortened: as §1
# [25] = molecular target: Fuc(a1-3)[Gal3S(b1-4)]GlcNAc
# Procedure, shortened: as §1
# [26] = molecular target: Fuc(a1-3)[Gal3S(b1-4)]GlcNAc6S
# Procedure, shortened: as §1
# [27] = molecular target: Fuc(a1-3)[GalNAc(b1-4)]GlcNAc
# Procedure, shortened: as §1
# [28] = molecular target: Fuc(a1-4)GlcNAc
# Procedure, shortened: as §1
# [29] = molecular target: Fuc(b1-3)GlcNAc
# Procedure, shortened: as §1
# [30] = molecular target: Gal(a1-2)Gal
# Procedure, shortened: as §1
# [31] = molecular target: Gal(a1-3)Gal
# Procedure, shortened: as §1
# [32] = molecular target: Gal(a1-3)Gal(b1-3)GlcNAc
# Procedure, shortened: as §1
# [33] = molecular target: Gal(a1-3)Gal(b1-3)GlcNAc(b1-2)Man(a1-3)[Gal(a1-3)Gal(b1-3)GlcNAc(b1-2)Man(a1-6)]Man(b1-4)GlcNAc(b1-4)GlcNAc
# Procedure, shortened: as §1
# [34] = molecular target: Gal(a1-3)Gal(b1-3)GlcNAc(b1-3)GalNAc
# Procedure, shortened: as §1
# [35] = molecular target: Gal(a1-3)Gal(b1-3)[Fuc(a1-4)]GlcNAc(b1-2)Man(a1-3)[Gal(a1-3)Gal(b1-3)[Fuc(a1-4)]GlcNAc(b1-2)Man(a1-6)]Man(b1-4)GlcNAc(b1-4)GlcNAc
# Procedure, shortened: as §1
# [36] = molecular target: Gal(a1-3)Gal(b1-4)Glc
# Procedure, shortened: as §1
# [37] = molecular target: Gal(a1-3)Gal(b1-4)GlcNAc
# Procedure, shortened: as §1
# [38] = molecular target: Gal(a1-3)Gal(b1-4)GlcNAc(b1-3)GalNAc
# Procedure, shortened: as §1
# [39] = molecular target: Gal(a1-3)Gal(b1-4)[Fuc(a1-3)]GlcNAc
# Procedure, shortened: as §1
# [40] = molecular target: Gal(a1-3)Gal(b1-4)[Fuc(a1-3)]GlcNAc(b1-2)Man(a1-3)[Gal(a1-3)Gal(b1-4)[Fuc(a1-3)]GlcNAc(b1-2)Man(a1-6)]Man(b1-4)GlcNAc(b1-4)GlcNAc
# Procedure, shortened: as §1
# [41] = molecular target: Gal(a1-3)GalNAc
# Procedure, shortened: as §1
# [42] = molecular target: Gal(a1-3)[Gal(a1-4)]Gal(b1-4)GlcNAc
# Procedure, shortened: as §1
# [43] = molecular target: Gal(a1-4)Gal(b1-3)GlcNAc(b1-2)Man(a1-3)[Gal(a1-4)Gal(b1-3)GlcNAc(b1-2)Man(a1-6)]Man(b1-4)GlcNAc(b1-4)GlcNAc
# Procedure, shortened: as §1
# [44] = molecular target: Gal(a1-4)Gal(b1-4)Glc
# Procedure, shortened: as §1
# [45] = molecular target: Gal(a1-4)Gal(b1-4)GlcNAc
# Procedure, shortened: as §1
# [46] = molecular target: Gal(a1-4)Gal(b1-4)GlcNAc(b1-2)Man(a1-3)[Gal(a1-4)Gal(b1-4)GlcNAc(b1-2)Man(a1-6)]Man(b1-4)GlcNAc(b1-4)GlcNAc
# Procedure, shortened: as §1
# [47] = molecular target: Gal(a1-4)Gal(b1-4)GlcNAc(b1-3)Gal(b1-4)Glc
# Procedure, shortened: as §1
# [48] = molecular target: Gal(a1-4)GlcNAc
# Procedure, shortened: as §1
# [49] = molecular target: Gal(a1-6)Glc
# Procedure, shortened: as §1
# [50] = molecular target: Gal(b1-2)Gal
# Procedure, shortened: as §1
# [51] = molecular target: Gal(b1-3)Gal
# Procedure, shortened: as §1
# [52] = molecular target: Gal(b1-3)Gal(b1-4)GlcNAc
# Procedure, shortened: as §1
# [53] = molecular target: Gal(b1-3)Gal(b1-4)GlcNAc(b1-2)Man(a1-3)[Gal(b1-3)Gal(b1-4)GlcNAc(b1-2)Man(a1-6)]Man(b1-4)GlcNAc(b1-4)GlcNAc
# Procedure, shortened: as §1
# [54] = molecular target: Gal(b1-3)GalNAc
# Procedure, shortened: as §1
# [55] = molecular target: Gal(b1-3)GalNAc(a1-3)[Fuc(a1-2)]Gal(b1-4)Glc
# Procedure, shortened: as §1
# [56] = molecular target: Gal(b1-3)GalNAc(a1-3)[Fuc(a1-2)]Gal(b1-4)GlcNAc
# Procedure, shortened: as §1
# [57] = molecular target: Gal(b1-3)GalNAc(b1-3)Gal(a1-4)Gal(b1-4)Glc
# Procedure, shortened: as §1
# [58] = molecular target: Gal(b1-3)GalNAc(b1-4)Gal(b1-4)Glc
# Procedure, shortened: as §1
# [59] = molecular target: Gal(b1-3)GalNAc(b1-4)[Neu5Ac(a2-3)]Gal(b1-4)Glc
# Procedure, shortened: as §1
# [60] = molecular target: Gal(b1-3)GlcNAc
# Procedure, shortened: as §1
binder,measurement,setting,value
"MFG-E8 (Homo sapiens), Q08431 (protein) MPRPRLLAALCGALLCAPSLLVALDICSKNPCHNGGLCEEISQEVRGDVFPSYTCTCLKGYAGNHCETKCVEPLGLENGNIANSQIAASSVRVTFLGLQHWVPELARLNRAGMVNAWTPSSNDDNPWIQVNLLRRMWVTGVVTQGASRLASHEYLKAFKVAYSLNGHEFDFIHDVNKKHKEFVGNWNKNAVHVNLFETPVEAQYVRLYPTSCHTACTLRFELLGCELNGCANPLGLKNNSIPDKQITASSSYKTWGLHLFSWNPSYARLDKQGNFNAWVAGSYGNDQWLQVDLGSSKEVTGIITQGARNFGSVQFVASYKVAYSNDSANWTEYQDPRTGSSKIFPGNWDNHSHKKNLFETPILARYVRILPVAWHNRIALRLELLGC",glycan array binding signal (z-score),[1],-0.52
same,glycan array binding signal (z-score),[2],-0.524
same,glycan array binding signal (z-score),[3],0.369
same,glycan array binding signal (z-score),[4],-0.617
same,glycan array binding signal (z-score),[5],1.74
same,glycan array binding signal (z-score),[6],0.291
same,glycan array binding signal (z-score),[7],-0.702
same,glycan array binding signal (z-score),[8],0.041
same,glycan array binding signal (z-score),[9],1.58
same,glycan array binding signal (z-score),[10],-0.634
same,glycan array binding signal (z-score),[11],-0.498
same,glycan array binding signal (z-score),[12],-0.499
same,glycan array binding signal (z-score),[13],-0.53
same,glycan array binding signal (z-score),[14],-0.5
same,glycan array binding signal (z-score),[15],-0.086
same,glycan array binding signal (z-score),[16],1.41
same,glycan array binding signal (z-score),[17],-0.607
same,glycan array binding signal (z-score),[18],0.876
same,glycan array binding signal (z-score),[19],-0.681
same,glycan array binding signal (z-score),[20],-0.486
same,glycan array binding signal (z-score),[21],0.336
same,glycan array binding signal (z-score),[22],-0.297
same,glycan array binding signal (z-score),[23],0.892
same,glycan array binding signal (z-score),[24],-0.161
same,glycan array binding signal (z-score),[25],-0.035
same,glycan array binding signal (z-score),[26],0.798
same,glycan array binding signal (z-score),[27],-0.015
same,glycan array binding signal (z-score),[28],-0.75
same,glycan array binding signal (z-score),[29],-0.777
same,glycan array binding signal (z-score),[30],-0.558
same,glycan array binding signal (z-score),[31],-0.48
same,glycan array binding signal (z-score),[32],-0.722
same,glycan array binding signal (z-score),[33],0.828
same,glycan array binding signal (z-score),[34],0.46
same,glycan array binding signal (z-score),[35],0.071
same,glycan array binding signal (z-score),[36],-0.592
same,glycan array binding signal (z-score),[37],-0.808
same,glycan array binding signal (z-score),[38],-0.233
same,glycan array binding signal (z-score),[39],-0.561
same,glycan array binding signal (z-score),[40],0.717
same,glycan array binding signal (z-score),[41],-0.456
same,glycan array binding signal (z-score),[42],-0.516
same,glycan array binding signal (z-score),[43],-0.427
same,glycan array binding signal (z-score),[44],0.09
same,glycan array binding signal (z-score),[45],-0.441
same,glycan array binding signal (z-score),[46],-0.735
same,glycan array binding signal (z-score),[47],0.311
same,glycan array binding signal (z-score),[48],-0.712
same,glycan array binding signal (z-score),[49],0.113
same,glycan array binding signal (z-score),[50],-0.467
same,glycan array binding signal (z-score),[51],-0.707
same,glycan array binding signal (z-score),[52],-0.085
same,glycan array binding signal (z-score),[53],0.095
same,glycan array binding signal (z-score),[54],-0.701
same,glycan array binding signal (z-score),[55],-0.317
same,glycan array binding signal (z-score),[56],-0.63
same,glycan array binding signal (z-score),[57],-0.572
same,glycan array binding signal (z-score),[58],-0.181
same,glycan array binding signal (z-score),[59],-0.7
same,glycan array binding signal (z-score),[60],-0.494
